The target of the assay is HATPase-c domain of WP_011677872.1 (histidine protein kinase encoded by LBUL_RS00115) (Lactobacillus delbrueckii subsp. bulgaricus ATCC BAA-365) (UniProt H2E1G9). Description: two-hybrid; S. cerevisiae Y2HGOLD co-transformed with pGBK-HPK0115 (bait) and pGAD-RR0110; growth on SD/-Trp-Leu-His plates with 0.1 mg/mL aureobasidin A (HIS3 and AUR1-C reporters).

Results are given in words; binding and its absence hold for the method and conditions named. A result given as binding can be weak or reduced; the word gives no strength.

Turning to “WP_011677871.1 (response regulator encoded by LBUL_RS00110) (from UniProt H2E1H0)”, the binding result is on record as “binds”.

The values above are taken from article PMC5516001.
